# Results published in patent publication US8722690B2, “Mesoionic pesticides” (E I du Pont de Nemours and Company, priority 2009, dated 2014).
# Read-outs that look alike come from different tables or passages of the source. Some results were stated once for a whole list of compounds, not compound by compound. At least one compound was matched to its structure with a doubt left.
# Key:
# Type in all cases: in vivo
# [1] = tested on: diamondback moth (Plutella xylostella); experiment: Test A: control of diamondback moth on radish plant, foliar spray; settings: sprayed at 10 ppm, 6 days, very good to excellent levels of control efficacy
# [2] = tested on: fall armyworm (Spodoptera frugiperda); experiment: Test B: control of fall armyworm on maize plant, foliar spray; settings: sprayed at 10 ppm, very good to excellent levels of control efficacy
# [3] = tested on: potato leafhopper (Empoasca fabae); settings: 6 days, Soleil bean plant, very good to excellent levels of control efficacy
SMILES,control efficacy: feeding damage (40% or less feeding damage and/or 100% mortality) [1] [%],control efficacy: feeding damage (40% or less feeding damage and/or 100% mortality) [2] [%],control efficacy: mortality ([3]; sprayed at 10 ppm) [%],control efficacy: mortality ([3]; sprayed at 50 ppm) [%]
COc1cccn2c(=O)c(-c3cccc(-c4ccc(C(F)(F)F)cc4Cl)c3)c([O-])[n+](Cc3cnc(Cl)s3)c12 [Compound 354],≤ 40,≤ 40,≥ 80,≥ 80
COc1cccn2c(=O)c(-c3cccc(-c4ccc(C(F)(F)F)cc4F)c3)c([O-])[n+](Cc3cnc(Cl)s3)c12 [Compound 355],≤ 40,≤ 40,,≥ 80
Cc1cccn2c(=O)c(-c3ccc(Cl)nc3)c([O-])[n+](Cc3cnc(Cl)s3)c12 [Compound 359],≤ 40,≤ 40,≥ 80,≥ 80
Cc1cccn2c(=O)c(-c3ccc(F)c(-c4ccc(C(F)(F)F)cc4F)c3)c([O-])[n+](Cc3cnc(Cl)s3)c12 [Compound 363],≤ 40,≤ 40,,≥ 80
Cc1cccn2c(=O)c(-c3cccc(-c4cc(C(F)(F)F)ccc4Cl)c3)c([O-])[n+](Cc3cnc(Cl)s3)c12 [Compound 367],≤ 40,≤ 40,≥ 80,≥ 80
Cc1cccn2c(=O)c(-c3ccc(F)c(-c4cc(OC(F)(F)F)ccc4F)c3)c([O-])[n+](Cc3cnc(Cl)s3)c12 [Compound 374],≤ 40,≤ 40,≥ 80,≥ 80
Cc1cccn2c(=O)c(-c3cccc(-c4ccc(C(F)(F)F)cc4C(F)(F)F)c3)c([O-])[n+](Cc3cnc(Cl)s3)c12 [Compound 375],≤ 40,≤ 40,≥ 80,≥ 80
COc1ccc(-c2c([O-])[n+](Cc3cnc(Cl)s3)c3c(C)cccn3c2=O)cc1-c1ccc(Cl)cc1C(F)(F)F [Compound 376],≤ 40,≤ 40,,≥ 80
Cc1cccn2c(=O)c(-c3cccc(C4CC4)c3)c([O-])[n+](Cc3cnc(Cl)s3)c12 [Compound 382],≤ 40,≤ 40,≥ 80,≥ 80
Cc1cccn2c(=O)c(-c3cccc(-c4ccc(Cl)nc4F)c3)c([O-])[n+](Cc3cnc(Cl)s3)c12 [Compound 384],≤ 40,≤ 40,,≥ 80
Cc1cccn2c(=O)c(-c3ccc(F)c(-c4ccc(Cl)c(F)c4)c3)c([O-])[n+](Cc3cnc(Cl)s3)c12 [Compound 387],≤ 40,≤ 40,,≥ 80
Cc1cccn2c(=O)c(-c3ccc(F)c(-c4ccc(C(F)(F)F)c(Cl)c4)c3)c([O-])[n+](Cc3cnc(Cl)s3)c12 [Compound 388],≤ 40,≤ 40,,≥ 80
COc1cccn2c(=O)c(-c3cc(F)cc(C(F)(F)F)c3)c([O-])[n+](Cc3cnc(Cl)s3)c12 [Compound 403],≤ 40,≤ 40,,≥ 80
COc1cc(Cl)cc(-c2c([O-])[n+](Cc3cnc(Cl)s3)c3c(C)cccn3c2=O)c1 [Compound 404],≤ 40,≤ 40,,≥ 80
Cc1cc(-c2c([O-])[n+](Cc3cnc(Cl)s3)c3c(C)cccn3c2=O)ccc1F [Compound 405],≤ 40,≤ 40,≥ 80,≥ 80
Cc1cccn2c(=O)c(-c3cc(-c4ccc(C(F)(F)F)cc4Cl)cc(C(F)(F)F)c3)c([O-])[n+](Cc3cnc(Cl)s3)c12 [Compound 412],≤ 40,≤ 40,,≥ 80

SMILES,control efficacy: feeding damage (40% or less feeding damage and/or 100% mortality) [1] [%],control efficacy: feeding damage (40% or less feeding damage and/or 100% mortality) [2] [%],control efficacy: mortality ([3]; sprayed at 10 ppm) [%],control efficacy: mortality ([3]; sprayed at 50 ppm) [%]
Cc1cccn2c(=O)c(-c3ccc(I)cc3)c([O-])[n+](Cc3cnc(Cl)s3)c12 [Compound 414],≤ 40,≤ 40,,≥ 80
COc1cc(F)cc(-c2c([O-])[n+](Cc3cnc(Cl)s3)c3c(C)cccn3c2=O)c1 [Compound 424],≤ 40,≤ 40,≥ 80,≥ 80
Cc1cccn2c(=O)c(-c3cc(Cl)cc(I)c3)c([O-])[n+](Cc3cnc(Cl)s3)c12 [Compound 425],≤ 40,≤ 40,,≥ 80
Cc1cccn2c(=O)c(-c3ccc(F)c(-c4cc(C(F)(F)F)ccc4Cl)c3)c([O-])[n+](Cc3cnc(Cl)s3)c12 [Compound 427],≤ 40,≤ 40,,≥ 80
Cc1cccn2c(=O)c(-c3cc(F)cc(-c4cc(C(F)(F)F)ccc4Cl)c3)c([O-])[n+](Cc3cnc(Cl)s3)c12 [Compound 434],≤ 40,≤ 40,≥ 80,
CON=C(C)c1cccc(-c2c([O-])[n+](Cc3cnc(Cl)s3)c3c(C)cccn3c2=O)c1 [Compound 439],≤ 40,≤ 40,,≥ 80
Cc1cccn2c(=O)c(-c3cc(F)cc(-c4ccc(Cl)cc4F)c3)c([O-])[n+](Cc3cnc(Cl)s3)c12 [Compound 441],≤ 40,≤ 40,,≥ 80
Cc1cccn2c(=O)c(-c3ccc(F)c(-c4cc(C(F)(F)F)ccc4F)c3)c([O-])[n+](Cc3cnc(Cl)s3)c12 [Compound 450],≤ 40,≤ 40,,≥ 80
Cc1cccn2c(=O)c(-c3cccc(-c4ccc(F)cc4C(F)(F)F)c3)c([O-])[n+](Cc3cnc(Cl)s3)c12 [Compound 457],≤ 40,≤ 40,,≥ 80
CCOc1nc(C(F)(F)F)ccc1-c1cccc(-c2c([O-])[n+](Cc3cnc(Cl)s3)c3c(C)cccn3c2=O)c1 [Compound 464],≤ 40,≤ 40,,≥ 80
Cc1cccn2c(=O)c(-c3cccc(-c4ccc(C(F)(F)F)nc4Cl)c3)c([O-])[n+](Cc3cnc(Cl)s3)c12 [Compound 467],≤ 40,≤ 40,,≥ 80
Cc1cc(C(F)(F)F)ccc1-c1cc(-c2c([O-])[n+](Cc3cnc(Cl)s3)c3c(C)cccn3c2=O)ccc1Cl [Compound 482],≤ 40,≤ 40,,≥ 80
COc1cc(C)cc(-c2c([O-])[n+](Cc3cnc(Cl)s3)c3c(C)cccn3c2=O)c1 [Compound 495],≤ 40,≤ 40,,≥ 80
Cc1cc(F)cc(-c2c([O-])[n+](Cc3cnc(Cl)s3)c3c(C)cccn3c2=O)c1 [Compound 498],≤ 40,≤ 40,≥ 80,≥ 80
Cc1cccn2c(=O)c(-c3cc(Cl)cc(-c4cnc(Cl)cc4Cl)c3)c([O-])[n+](Cc3cnc(Cl)s3)c12 [Compound 499],≤ 40,≤ 40,≥ 80,≥ 80
